Reference: article doi:10.1101/2020.03.12.988840
These are yes or no findings as the source states them, for the method shown. In cells and extracts the contact can be indirect. Some results given as binding are weak or reduced against the parent protein; the word gives no strength. Where a sequence is shown, tags or fusion partners need not be part of it.

Assays:
Assay in all cases: co-IP
[1] = target: T1, GFP::SYP-3 (C. elegans) (UniProt O62238)
T1 sequence: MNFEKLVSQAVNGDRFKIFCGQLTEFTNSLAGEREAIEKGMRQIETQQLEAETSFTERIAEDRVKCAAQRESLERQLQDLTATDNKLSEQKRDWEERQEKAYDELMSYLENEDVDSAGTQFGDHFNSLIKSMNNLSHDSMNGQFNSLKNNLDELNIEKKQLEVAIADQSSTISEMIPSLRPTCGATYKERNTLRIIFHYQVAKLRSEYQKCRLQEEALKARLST

[2] = target: T2, MRE-11::GFP (C. elegans) (UniProt Q23255)
T2 sequence: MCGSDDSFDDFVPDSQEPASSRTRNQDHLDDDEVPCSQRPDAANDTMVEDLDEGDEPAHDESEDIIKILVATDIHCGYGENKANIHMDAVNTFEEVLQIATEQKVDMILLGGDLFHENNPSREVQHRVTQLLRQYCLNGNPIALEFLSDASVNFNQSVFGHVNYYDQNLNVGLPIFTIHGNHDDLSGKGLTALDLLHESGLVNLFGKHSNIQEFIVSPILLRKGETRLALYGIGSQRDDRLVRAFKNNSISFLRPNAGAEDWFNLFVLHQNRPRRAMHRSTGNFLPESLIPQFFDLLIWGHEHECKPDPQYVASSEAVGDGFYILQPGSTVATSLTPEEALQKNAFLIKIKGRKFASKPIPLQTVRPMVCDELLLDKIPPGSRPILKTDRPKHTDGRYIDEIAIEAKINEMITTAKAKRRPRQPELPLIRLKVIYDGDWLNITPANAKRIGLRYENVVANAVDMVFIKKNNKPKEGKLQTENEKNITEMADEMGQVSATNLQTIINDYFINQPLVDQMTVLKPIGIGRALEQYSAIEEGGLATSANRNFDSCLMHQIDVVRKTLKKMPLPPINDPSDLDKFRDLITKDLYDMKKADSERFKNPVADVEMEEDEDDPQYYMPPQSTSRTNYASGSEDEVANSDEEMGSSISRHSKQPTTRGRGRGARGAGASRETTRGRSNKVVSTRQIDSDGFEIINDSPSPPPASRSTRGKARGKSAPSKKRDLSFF

[3] = target: T3, REC-8::GFP (C. elegans) (UniProt Q9XUB3)
T3 sequence: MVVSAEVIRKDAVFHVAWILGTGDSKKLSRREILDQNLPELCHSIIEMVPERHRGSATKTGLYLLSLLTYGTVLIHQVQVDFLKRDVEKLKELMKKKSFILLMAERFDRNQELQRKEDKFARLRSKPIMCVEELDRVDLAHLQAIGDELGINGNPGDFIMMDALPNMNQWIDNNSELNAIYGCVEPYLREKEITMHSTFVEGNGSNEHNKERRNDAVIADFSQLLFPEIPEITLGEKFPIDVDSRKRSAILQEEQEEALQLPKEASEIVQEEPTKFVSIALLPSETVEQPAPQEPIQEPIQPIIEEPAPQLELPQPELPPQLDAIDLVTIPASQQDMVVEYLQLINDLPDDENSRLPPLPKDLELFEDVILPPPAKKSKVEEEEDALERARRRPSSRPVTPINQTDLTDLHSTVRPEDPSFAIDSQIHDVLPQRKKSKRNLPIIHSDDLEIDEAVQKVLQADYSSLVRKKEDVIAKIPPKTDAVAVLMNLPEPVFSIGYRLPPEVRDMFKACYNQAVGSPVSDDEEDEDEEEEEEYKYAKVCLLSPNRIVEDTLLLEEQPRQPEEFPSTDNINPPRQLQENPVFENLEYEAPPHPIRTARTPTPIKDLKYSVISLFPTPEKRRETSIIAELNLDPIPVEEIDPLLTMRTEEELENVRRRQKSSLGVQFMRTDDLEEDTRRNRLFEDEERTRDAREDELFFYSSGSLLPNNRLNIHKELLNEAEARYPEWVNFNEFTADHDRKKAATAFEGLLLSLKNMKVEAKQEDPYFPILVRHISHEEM

binding [1]: binds
binding [2]: binds
binding [3]: binds
B1: PARG-1 (poly(ADP-ribose) glycohydrolase), endogenous (enzyme, UniProt Q867X0 1-781)
chain: MSKKFIELGDPVTQDEKDYEDYVGVGFAHQVPTMKRRKLTEHGNTTESKEDPEEPKSRDVFVSSQSSDESQEDSAENPEIAKEVSENCENLTETLKISNIESLDNVTERSEHTLDNHKSTEPMEEDVNNKSNIDVAINSDEDDELVLEENNKEMRDGEQVQQDLFADDQELIEYPGIMKDTTTQLDITDSEVETAQKMEMIEETEADSTFVGEDSKNQRQSGTTSDEVDADSQINLATKTVRTSSSSFLSTVSTCEAPAKGRARMYQKELEKHVIAFTEGNLTLQPDLNKVDPDRNYRYCTIPNFPASQGKLREDNRYGPKIVLPQRWREFDSRGRRRDSYFYFKRKLDGYLKCYKTTGYFMFVGLLHNMWEFDPDITYKLPALEMYYKEMSELVGREEVLEKFARVARIAKTAEDILPERIYRLVGDVESATLSHKQCAALVARMFFARPDSPFSFCRILSSDKSICVEKLKFLFTYFDKMSMDPPDGAVSFRLTKMDKDTFNEEWKDKKLRSLPEVEFFDEMLIEDTALCTQVDFANEHLGGGVLNHGSVQEEIRFLMCPEMMVGMLLCEKMKQLEAISIVGAYVFSSYTGYGHTLKWAELQPNHSRQNTNEFRDRFGRLRVETIAIDAILFKGSKLDCQTEQLNKANIIREMKKASIGFMSQGPKFTNIPIVTGWWGCGAFNGDKPLKFIIQVIAAGVADRPLHFCSFGEPELAAKCKKIIERMKQKDVTLGMLFSMINNTGLPHKHFEFYVFDRISTYLSSSEDVESSKSSPSVSRA
